The other results are listed elsewhere or left out.

Amino acid sequences for entries named in this document (tags omitted). A change or cut given only in a name is not applied to a line headed by its entry.
UniProt O00623: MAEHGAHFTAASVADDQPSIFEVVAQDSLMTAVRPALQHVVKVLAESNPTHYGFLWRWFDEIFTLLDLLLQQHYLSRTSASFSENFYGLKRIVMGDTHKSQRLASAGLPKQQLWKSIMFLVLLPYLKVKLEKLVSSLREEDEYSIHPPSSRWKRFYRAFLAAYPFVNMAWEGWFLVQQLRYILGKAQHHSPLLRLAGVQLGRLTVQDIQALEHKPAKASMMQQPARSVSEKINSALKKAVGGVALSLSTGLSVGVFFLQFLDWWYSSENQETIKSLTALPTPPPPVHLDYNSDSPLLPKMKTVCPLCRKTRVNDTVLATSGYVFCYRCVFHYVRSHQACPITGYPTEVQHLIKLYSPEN
UniProt Q9NVE7: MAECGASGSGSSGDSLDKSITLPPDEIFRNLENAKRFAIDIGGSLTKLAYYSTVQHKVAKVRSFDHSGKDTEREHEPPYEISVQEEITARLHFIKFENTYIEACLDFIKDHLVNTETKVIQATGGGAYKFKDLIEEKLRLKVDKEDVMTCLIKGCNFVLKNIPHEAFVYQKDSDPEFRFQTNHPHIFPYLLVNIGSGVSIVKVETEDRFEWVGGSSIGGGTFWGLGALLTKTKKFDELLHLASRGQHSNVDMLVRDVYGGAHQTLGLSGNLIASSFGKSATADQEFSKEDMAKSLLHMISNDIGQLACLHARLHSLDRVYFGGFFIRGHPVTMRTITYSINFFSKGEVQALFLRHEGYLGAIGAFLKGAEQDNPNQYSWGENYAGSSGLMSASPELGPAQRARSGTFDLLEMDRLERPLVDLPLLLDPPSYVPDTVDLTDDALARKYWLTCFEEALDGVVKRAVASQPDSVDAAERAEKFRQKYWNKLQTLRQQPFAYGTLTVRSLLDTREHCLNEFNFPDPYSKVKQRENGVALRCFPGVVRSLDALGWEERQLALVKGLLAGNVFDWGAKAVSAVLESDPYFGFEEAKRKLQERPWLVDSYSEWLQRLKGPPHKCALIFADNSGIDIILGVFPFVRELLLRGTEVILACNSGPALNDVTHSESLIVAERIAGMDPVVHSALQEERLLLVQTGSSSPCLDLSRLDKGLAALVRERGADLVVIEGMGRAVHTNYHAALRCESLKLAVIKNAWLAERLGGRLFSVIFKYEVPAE
UniProt Q5T2R2: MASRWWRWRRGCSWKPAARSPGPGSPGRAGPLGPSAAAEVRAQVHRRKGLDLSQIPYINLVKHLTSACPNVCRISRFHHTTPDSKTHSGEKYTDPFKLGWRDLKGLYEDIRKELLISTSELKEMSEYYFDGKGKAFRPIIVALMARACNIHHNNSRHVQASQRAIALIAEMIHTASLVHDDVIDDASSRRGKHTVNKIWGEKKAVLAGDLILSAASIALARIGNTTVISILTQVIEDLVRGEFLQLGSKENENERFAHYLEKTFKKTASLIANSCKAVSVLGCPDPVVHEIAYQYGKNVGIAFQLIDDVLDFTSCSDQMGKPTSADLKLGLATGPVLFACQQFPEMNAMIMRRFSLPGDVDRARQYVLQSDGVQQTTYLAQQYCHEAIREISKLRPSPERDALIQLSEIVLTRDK
UniProt P50479: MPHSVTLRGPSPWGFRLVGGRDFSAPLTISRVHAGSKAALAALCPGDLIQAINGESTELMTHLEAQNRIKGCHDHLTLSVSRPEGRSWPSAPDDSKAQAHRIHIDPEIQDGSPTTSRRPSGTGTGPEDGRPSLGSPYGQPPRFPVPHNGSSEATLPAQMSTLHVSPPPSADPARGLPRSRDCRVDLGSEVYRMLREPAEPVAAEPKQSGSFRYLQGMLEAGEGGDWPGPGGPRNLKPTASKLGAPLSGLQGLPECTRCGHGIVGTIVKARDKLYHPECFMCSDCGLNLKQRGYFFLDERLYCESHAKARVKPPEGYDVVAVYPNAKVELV
UniProt Q13177, whole entry, looked up: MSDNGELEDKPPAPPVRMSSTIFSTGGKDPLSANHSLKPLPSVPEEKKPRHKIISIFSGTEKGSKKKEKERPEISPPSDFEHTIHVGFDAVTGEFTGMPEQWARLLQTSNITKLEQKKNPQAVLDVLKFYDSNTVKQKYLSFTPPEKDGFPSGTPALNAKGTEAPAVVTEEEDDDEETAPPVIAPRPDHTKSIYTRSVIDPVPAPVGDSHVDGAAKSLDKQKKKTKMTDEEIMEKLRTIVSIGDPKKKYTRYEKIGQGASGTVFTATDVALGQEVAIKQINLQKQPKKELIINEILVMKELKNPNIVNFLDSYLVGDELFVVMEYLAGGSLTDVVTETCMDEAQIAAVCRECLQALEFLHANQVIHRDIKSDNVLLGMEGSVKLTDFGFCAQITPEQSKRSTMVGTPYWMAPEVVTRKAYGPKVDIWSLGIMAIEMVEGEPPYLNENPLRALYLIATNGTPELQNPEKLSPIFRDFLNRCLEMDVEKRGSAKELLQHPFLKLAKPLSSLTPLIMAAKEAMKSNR
UniProt Q96GD0: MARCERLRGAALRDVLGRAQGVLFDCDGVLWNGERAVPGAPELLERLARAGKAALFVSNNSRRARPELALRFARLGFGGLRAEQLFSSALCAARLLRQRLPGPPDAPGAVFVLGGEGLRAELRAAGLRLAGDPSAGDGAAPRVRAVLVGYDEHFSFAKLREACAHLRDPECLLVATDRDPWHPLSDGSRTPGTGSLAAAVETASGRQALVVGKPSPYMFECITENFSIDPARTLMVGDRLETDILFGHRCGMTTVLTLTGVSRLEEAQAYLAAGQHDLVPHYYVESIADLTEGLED
UniProt P56645: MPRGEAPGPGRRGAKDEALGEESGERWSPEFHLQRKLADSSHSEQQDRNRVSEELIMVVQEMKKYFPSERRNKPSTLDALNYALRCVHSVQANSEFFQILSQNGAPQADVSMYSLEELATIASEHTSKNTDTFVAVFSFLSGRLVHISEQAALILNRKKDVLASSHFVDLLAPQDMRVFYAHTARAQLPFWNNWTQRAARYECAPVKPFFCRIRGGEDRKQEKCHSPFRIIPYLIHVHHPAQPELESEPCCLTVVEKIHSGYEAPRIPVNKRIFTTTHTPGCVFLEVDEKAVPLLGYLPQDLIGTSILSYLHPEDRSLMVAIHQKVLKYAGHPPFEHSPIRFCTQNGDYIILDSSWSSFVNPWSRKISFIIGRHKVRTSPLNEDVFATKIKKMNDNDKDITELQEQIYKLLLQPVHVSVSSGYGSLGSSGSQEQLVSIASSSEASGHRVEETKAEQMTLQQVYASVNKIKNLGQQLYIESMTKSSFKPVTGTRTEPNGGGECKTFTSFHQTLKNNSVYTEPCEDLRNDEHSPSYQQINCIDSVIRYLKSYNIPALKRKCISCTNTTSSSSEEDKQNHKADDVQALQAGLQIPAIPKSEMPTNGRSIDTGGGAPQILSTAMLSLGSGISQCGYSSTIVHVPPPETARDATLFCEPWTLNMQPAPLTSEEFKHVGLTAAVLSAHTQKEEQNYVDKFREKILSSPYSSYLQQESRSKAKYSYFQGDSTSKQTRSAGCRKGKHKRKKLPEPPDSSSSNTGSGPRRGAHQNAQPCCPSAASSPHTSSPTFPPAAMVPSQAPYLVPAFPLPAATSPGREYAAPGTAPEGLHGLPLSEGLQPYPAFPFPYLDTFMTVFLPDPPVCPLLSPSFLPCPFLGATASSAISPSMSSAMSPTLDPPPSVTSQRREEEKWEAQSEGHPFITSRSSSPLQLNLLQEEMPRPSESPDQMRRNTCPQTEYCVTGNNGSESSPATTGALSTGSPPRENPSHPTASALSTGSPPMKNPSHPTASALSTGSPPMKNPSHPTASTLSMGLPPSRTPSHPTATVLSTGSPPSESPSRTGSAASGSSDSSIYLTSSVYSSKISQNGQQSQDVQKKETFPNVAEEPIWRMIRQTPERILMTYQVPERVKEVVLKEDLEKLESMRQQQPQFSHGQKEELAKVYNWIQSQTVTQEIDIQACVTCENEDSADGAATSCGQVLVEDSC
UniProt Q9NWT1: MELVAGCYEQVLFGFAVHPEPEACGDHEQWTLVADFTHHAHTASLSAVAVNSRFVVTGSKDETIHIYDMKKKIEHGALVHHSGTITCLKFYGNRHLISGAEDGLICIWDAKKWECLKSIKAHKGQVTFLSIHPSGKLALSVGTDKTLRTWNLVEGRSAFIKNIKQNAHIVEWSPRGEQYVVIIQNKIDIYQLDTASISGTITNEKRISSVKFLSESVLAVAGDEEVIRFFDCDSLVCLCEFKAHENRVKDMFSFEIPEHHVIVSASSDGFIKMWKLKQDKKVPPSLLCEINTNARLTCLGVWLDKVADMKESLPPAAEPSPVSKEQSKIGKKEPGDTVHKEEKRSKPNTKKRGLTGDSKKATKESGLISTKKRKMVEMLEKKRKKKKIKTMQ
UniProt Q13310, whole entry, looked up: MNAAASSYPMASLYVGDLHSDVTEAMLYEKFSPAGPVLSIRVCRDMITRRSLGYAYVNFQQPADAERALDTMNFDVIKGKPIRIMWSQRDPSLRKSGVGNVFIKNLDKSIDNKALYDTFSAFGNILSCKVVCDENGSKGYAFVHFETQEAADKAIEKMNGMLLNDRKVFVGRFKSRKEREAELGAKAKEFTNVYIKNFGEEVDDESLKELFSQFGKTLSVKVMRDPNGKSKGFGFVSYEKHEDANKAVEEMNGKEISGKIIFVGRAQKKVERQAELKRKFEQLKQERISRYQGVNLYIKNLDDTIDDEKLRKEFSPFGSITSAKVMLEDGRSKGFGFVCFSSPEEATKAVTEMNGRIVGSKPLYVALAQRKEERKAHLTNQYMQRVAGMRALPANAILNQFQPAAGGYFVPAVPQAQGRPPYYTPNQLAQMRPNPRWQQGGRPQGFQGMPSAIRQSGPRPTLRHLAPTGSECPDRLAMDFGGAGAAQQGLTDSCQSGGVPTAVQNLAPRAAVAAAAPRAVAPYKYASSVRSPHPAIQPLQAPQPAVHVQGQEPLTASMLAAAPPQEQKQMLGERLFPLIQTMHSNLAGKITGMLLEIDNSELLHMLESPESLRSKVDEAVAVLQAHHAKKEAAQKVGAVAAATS
UniProt P22061: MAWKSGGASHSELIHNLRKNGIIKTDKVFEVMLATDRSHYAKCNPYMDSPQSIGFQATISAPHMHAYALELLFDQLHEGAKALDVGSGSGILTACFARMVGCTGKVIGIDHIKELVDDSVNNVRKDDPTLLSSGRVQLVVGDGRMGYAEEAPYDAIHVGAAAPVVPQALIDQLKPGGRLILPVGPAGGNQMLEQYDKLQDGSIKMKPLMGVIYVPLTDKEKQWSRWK
UniProt Q9BUL8: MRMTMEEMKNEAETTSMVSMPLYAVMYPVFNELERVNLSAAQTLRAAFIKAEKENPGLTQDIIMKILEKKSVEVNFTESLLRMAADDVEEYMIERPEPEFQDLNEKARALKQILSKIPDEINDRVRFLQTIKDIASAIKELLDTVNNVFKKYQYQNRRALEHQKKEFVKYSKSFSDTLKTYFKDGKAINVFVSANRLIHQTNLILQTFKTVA
UniProt Q9HBI1: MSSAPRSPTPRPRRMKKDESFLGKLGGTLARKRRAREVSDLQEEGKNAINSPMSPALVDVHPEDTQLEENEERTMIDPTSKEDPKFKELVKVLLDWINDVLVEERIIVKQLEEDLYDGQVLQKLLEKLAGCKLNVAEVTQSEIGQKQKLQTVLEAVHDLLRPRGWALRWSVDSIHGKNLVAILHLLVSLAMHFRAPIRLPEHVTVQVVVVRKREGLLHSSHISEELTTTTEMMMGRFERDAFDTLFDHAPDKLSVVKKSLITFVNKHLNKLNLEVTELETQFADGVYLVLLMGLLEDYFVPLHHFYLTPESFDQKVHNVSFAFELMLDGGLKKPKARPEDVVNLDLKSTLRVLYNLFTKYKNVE
UniProt Q96RD7, whole entry, looked up: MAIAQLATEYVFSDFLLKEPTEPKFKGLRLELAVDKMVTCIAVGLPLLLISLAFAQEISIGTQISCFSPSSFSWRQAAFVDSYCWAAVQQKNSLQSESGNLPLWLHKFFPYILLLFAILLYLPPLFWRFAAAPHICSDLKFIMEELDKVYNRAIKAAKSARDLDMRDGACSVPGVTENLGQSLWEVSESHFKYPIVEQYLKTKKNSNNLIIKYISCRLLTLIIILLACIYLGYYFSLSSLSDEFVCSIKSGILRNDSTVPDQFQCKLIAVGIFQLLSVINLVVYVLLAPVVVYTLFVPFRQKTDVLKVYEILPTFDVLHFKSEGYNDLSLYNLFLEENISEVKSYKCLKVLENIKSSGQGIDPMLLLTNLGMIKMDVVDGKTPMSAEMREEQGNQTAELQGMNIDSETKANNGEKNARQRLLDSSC
UniProt P11177, whole entry, looked up: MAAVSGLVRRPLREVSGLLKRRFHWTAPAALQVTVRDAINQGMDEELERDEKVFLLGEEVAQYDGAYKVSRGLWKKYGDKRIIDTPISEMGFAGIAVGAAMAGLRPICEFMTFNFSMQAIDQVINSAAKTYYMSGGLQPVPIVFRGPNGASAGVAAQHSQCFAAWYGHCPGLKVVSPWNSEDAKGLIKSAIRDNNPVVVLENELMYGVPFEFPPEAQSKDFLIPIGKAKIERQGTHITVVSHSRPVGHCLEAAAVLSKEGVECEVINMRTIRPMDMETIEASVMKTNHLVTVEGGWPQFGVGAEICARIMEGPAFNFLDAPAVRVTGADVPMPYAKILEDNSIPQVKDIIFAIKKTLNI

Compound in one assay: C[C@H](C1=CC=C(C=C1)C(=O)NC2=C3C=CNC3=NC=C2)N
As to the kind of experiment: log2 fold change, soluble protein after heating vs DMSO (PISA); higher = thermal stabilisation; K562 cells, 10 uM, 30 min; active = over 0.2 and 3.5 SD of the protein, either way, in both replicates (recomputed). In outline:
(§1)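 Thermal stability values are relative to control samples and come from duplicates. They are expressed as log2 fold changes. For measurement, K562 cells (2×10^6 cells/mL) received 10 μM compound for 30 min, and aliquots were heated for 3 min over 48°C-58°C, pooled, and extracted at 4°C in PBS with 0.5% NP-40. Soluble protein, the supernatant after 21,000xg for 90 min, was quantified by TMTpro 16plex LC-MS/MS with equalised channel sums.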
With PEX12 (UniProt O00623), the log2 fold change was inactive: -0.021.

Regarding PDHX (UniProt O00330), the log2 fold change was inactive: 0.241.

On to PANK4 (UniProt Q9NVE7), for which the log2 fold change is inactive: -0.032.

Consider PDSS1 (UniProt Q5T2R2), for which the log2 fold change was inactive: -0.085.

For the target PDLIM1 (UniProt O00151), the log2 fold change was inactive: -0.082.

For the target PDLIM4 (UniProt P50479), the log2 fold change is inactive: -0.022.

Consider PAK2 (UniProt Q13177), for which the log2 fold change was inactive: -0.045.

As for PACSIN2 (UniProt Q9UNF0), the log2 fold change is inactive: 0.067.

Consider PDXDC1 (UniProt Q6P996), for which the log2 fold change is inactive: 0.303.

As to PASK (UniProt Q96RG2), the log2 fold change was inactive: 0.011.

Consider PARD6B (UniProt Q9BYG5), for which the log2 fold change was inactive: 0.069.

In the case of PEBP1 (UniProt P30086), the log2 fold change is inactive: -0.057.

On to PCYOX1 (UniProt Q9UHG3), for which the log2 fold change is inactive: -0.017.

For PDXP (UniProt Q96GD0), the log2 fold change is inactive: 0.024.

Take PER3 isoform 2 (UniProt P56645): the log2 fold change is inactive: -0.165.

In the case of PEX1 (UniProt O43933), the log2 fold change is inactive: -0.013.

Turning to PARK7 (UniProt Q99497), the log2 fold change was inactive: -0.123.

As for PAK1IP1 (UniProt Q9NWT1), the log2 fold change was inactive: 0.469.

Take PES1 (UniProt O00541): the log2 fold change was inactive: -0.064.

In the case of PDRG1 (UniProt Q9NUG6), the log2 fold change is inactive: 0.009.

Take PDXK (UniProt O00764): the log2 fold change was inactive: -0.028.

Turning to PABPC4 isoform 3 (UniProt Q13310), the log2 fold change was inactive: 0.05.

With PCMT1 isoform 2 (UniProt P22061), the log2 fold change is inactive: -0.079.

In the case of PEPD (UniProt P12955), the log2 fold change was inactive: -0.087.

Regarding PDCD10 (UniProt Q9BUL8), the log2 fold change was inactive: -0.054.

For PAPOLA (UniProt P51003), the log2 fold change was inactive: -0.035.

In the case of PARVB (UniProt Q9HBI1), the log2 fold change was inactive: 0.002.

Regarding PANX1 (UniProt Q96RD7), the log2 fold change was inactive: -0.137.

In the case of PAFAH1B1 (UniProt P43034), the log2 fold change was inactive: -0.112.

Consider PDIA3 (UniProt P30101), for which the log2 fold change was inactive: 0.138.

PDHB (UniProt P11177): the log2 fold change is inactive: 0.143.

With PAIP1 (UniProt Q9H074), the log2 fold change is inactive: -0.022.

With PDCL (UniProt Q13371), the log2 fold change is inactive: 0.003.

Compound in the next assay: C[C@H](Nc1ncnc2nc[nH]c12)c1cc2cccc(Cl)c2c(=O)n1-c1ccccc1 [duvelisib]
The assay is described as above. In outline:
as §1
On to PEX12 (UniProt O00623), for which the log2 fold change is inactive: 0.018.

For PDHX (UniProt O00330), the log2 fold change was inactive: -0.155.

PANK4 (UniProt Q9NVE7): the log2 fold change was inactive: 0.079.

In the case of PDSS1 (UniProt Q5T2R2), the log2 fold change was inactive: -0.026.

As for PDLIM1 (UniProt O00151), the log2 fold change is inactive: 0.009.

Regarding PDLIM4 (UniProt P50479), the log2 fold change was inactive: 0.033.

Take PAK2 (UniProt Q13177): the log2 fold change is inactive: 0.019.

Regarding PACSIN2 (UniProt Q9UNF0), the log2 fold change was inactive: -0.024.

In the case of PDXDC1 (UniProt Q6P996), the log2 fold change was inactive: -0.045.

As for PASK (UniProt Q96RG2), the log2 fold change was inactive: -0.003.

PARD6B (UniProt Q9BYG5): the log2 fold change was inactive: -0.068.

For PEBP1 (UniProt P30086), the log2 fold change was inactive: 0.

With PCYOX1 (UniProt Q9UHG3), the log2 fold change was inactive: -0.018.

Regarding PDXP (UniProt Q96GD0), the log2 fold change was inactive: 0.02.

On to PER3 isoform 2 (UniProt P56645), for which the log2 fold change was inactive: -0.036.

In the case of PEX1 (UniProt O43933), the log2 fold change was inactive: 0.034.

As to PARK7 (UniProt Q99497), the log2 fold change was inactive: -0.011.

For PAK1IP1 (UniProt Q9NWT1), the log2 fold change was inactive: -0.202.

Consider PES1 (UniProt O00541), for which the log2 fold change was inactive: -0.044.

Take PDRG1 (UniProt Q9NUG6): the log2 fold change is inactive: 0.014.

With PDXK (UniProt O00764), the log2 fold change was inactive: 0.035.

As for PABPC4 isoform 3 (UniProt Q13310), the log2 fold change is inactive: -0.076.

For PCMT1 isoform 2 (UniProt P22061), the log2 fold change was inactive: 0.068.

On to PEPD (UniProt P12955), for which the log2 fold change was inactive: 0.029.

Take PDCD10 (UniProt Q9BUL8): the log2 fold change was inactive: 0.05.

In the case of PAPOLA (UniProt P51003), the log2 fold change was inactive: 0.025.

As to PARVB (UniProt Q9HBI1), the log2 fold change is inactive: 0.067.

With PANX1 (UniProt Q96RD7), the log2 fold change is inactive: 0.095.

Take PAFAH1B1 (UniProt P43034): the log2 fold change was inactive: 0.03.

As for PDIA3 (UniProt P30101), the log2 fold change is inactive: -0.101.

Turning to PDHB (UniProt P11177), the log2 fold change was inactive: -0.061.

PAIP1 (UniProt Q9H074): the log2 fold change was inactive: 0.007.

Turning to PDCL (UniProt Q13371), the log2 fold change is inactive: 0.071.

Compound in the next assay: Cc1cc(Nc2cc(CN3CCOCC3)c3nc(C)c(Cc4ccc(Cl)cc4F)n3n2)n[nH]1 [gandotinib]
The description is as above. Summed up: as §1
On to PEX12 (UniProt O00623), for which the log2 fold change is inactive: 0.193.

Regarding PDHX (UniProt O00330), the log2 fold change was inactive: 0.089.

Consider PANK4 (UniProt Q9NVE7), for which the log2 fold change is inactive: 0.095.

With PDSS1 (UniProt Q5T2R2), the log2 fold change was inactive: 0.029.

Take PDLIM1 (UniProt O00151): the log2 fold change was inactive: -0.022.

As to PDLIM4 (UniProt P50479), the log2 fold change was inactive: 0.007.

On to PAK2 (UniProt Q13177), for which the log2 fold change is inactive: 0.004.

For PACSIN2 (UniProt Q9UNF0), the log2 fold change was inactive: -0.081.

PDXDC1 (UniProt Q6P996): the log2 fold change is inactive: 0.057.

For the target PASK (UniProt Q96RG2), the log2 fold change is inactive: -0.059.

Take PARD6B (UniProt Q9BYG5): the log2 fold change was inactive: 0.032.

As to PEBP1 (UniProt P30086), the log2 fold change is inactive: 0.057.

In the case of PCYOX1 (UniProt Q9UHG3), the log2 fold change was inactive: -0.065.

With PDXP (UniProt Q96GD0), the log2 fold change is inactive: -0.015.

For the target PER3 isoform 2 (UniProt P56645), the log2 fold change is inactive: 0.058.

On to PEX1 (UniProt O43933), for which the log2 fold change was inactive: -0.062.

With PARK7 (UniProt Q99497), the log2 fold change was inactive: -0.109.

Consider PAK1IP1 (UniProt Q9NWT1), for which the log2 fold change was inactive: 0.294.

Take PES1 (UniProt O00541): the log2 fold change was inactive: 0.111.

With PDRG1 (UniProt Q9NUG6), the log2 fold change was inactive: 0.018.

On to PDXK (UniProt O00764), for which the log2 fold change was inactive: -0.01.

Take PABPC4 isoform 3 (UniProt Q13310): the log2 fold change is inactive: 0.032.

PCMT1 isoform 2 (UniProt P22061): the log2 fold change was inactive: 0.024.

PEPD (UniProt P12955): the log2 fold change was inactive: 0.002.

As to PDCD10 (UniProt Q9BUL8), the log2 fold change was inactive: -0.01.

On to PAPOLA (UniProt P51003), for which the log2 fold change was inactive: -0.086.

Turning to PARVB (UniProt Q9HBI1), the log2 fold change was inactive: -0.058.

Consider PANX1 (UniProt Q96RD7), for which the log2 fold change was inactive: -0.016.

As for PAFAH1B1 (UniProt P43034), the log2 fold change is inactive: -0.016.

Regarding PDIA3 (UniProt P30101), the log2 fold change was inactive: -0.032.

Turning to PDHB (UniProt P11177), the log2 fold change was inactive: 0.024.

Take PAIP1 (UniProt Q9H074): the log2 fold change was inactive: 0.001.

As for PDCL (UniProt Q13371), the log2 fold change is inactive: -0.038.
